Test results taken from publication PMC11988928.
Construct, isoform or probe ends are uncertain for at least one entry. For part of these data: No signal at the amounts used counts as a negative.

Chains of the proteins cited; added tags and fusions are not shown. A line that says so, or that is headed by a name, gives the form on record, which may keep a tag or linker.
KatB (catalase), one chain, as listed by the source: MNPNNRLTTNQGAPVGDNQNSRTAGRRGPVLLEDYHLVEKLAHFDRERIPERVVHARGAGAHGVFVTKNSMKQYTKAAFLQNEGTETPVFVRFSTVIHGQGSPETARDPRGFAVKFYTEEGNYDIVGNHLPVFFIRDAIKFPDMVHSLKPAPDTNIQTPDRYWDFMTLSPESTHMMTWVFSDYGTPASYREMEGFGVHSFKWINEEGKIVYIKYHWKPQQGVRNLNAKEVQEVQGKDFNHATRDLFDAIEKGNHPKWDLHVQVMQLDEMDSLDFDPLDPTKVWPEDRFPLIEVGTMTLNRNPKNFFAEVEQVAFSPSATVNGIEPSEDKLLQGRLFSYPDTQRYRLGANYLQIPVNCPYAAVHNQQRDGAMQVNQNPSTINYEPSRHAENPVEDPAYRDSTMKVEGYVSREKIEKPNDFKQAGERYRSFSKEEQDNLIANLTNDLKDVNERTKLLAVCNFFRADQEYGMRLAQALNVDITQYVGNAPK

Tests used:
[1] = system: Fur (ferric uptake regulator) (Bacillus thuringiensis 97-27); assay: DNase I footprinting; conditions: recombinant protein; residues 1-151; label: 5'-FAM on forward strand; probe letters rebuilt from the primers and the genome
KatB (catalase) = assay: EMSA; conditions: increasing KatB; EMSA: 50 mM Tris-HCl pH 7.5, 10 mM MgCl2, 1 mM DTT, 100 mM NaCl, 25 C, 30 min; 8% native PAGE in 0.5x TBE; metal series with 0.05 mM Fur and 0.001 mM DNA; recombinant protein; label: none (ethidium bromide stain); probe letters rebuilt from the primers and the …
[2] = system: Fur (ferric uptake regulator) (Bacillus thuringiensis 97-27); assay: EMSA; conditions: EMSA: 50 mM Tris-HCl pH 7.5, 10 mM MgCl2, 1 mM DTT, 100 mM NaCl, 25 C, 30 min, 8% native PAGE in 0.5x TBE, metal series with 0.05 mM Fur and 0.001 mM DNA, recombinant protein, residues 1-151, label: none (ethidium bromide stain), probe letters rebuilt from the primers and the genome

| Sequence | binding result [1] | binding result (KatB (catalase)) | binding result ([2]; Fe2+ up to 0.025 mM (list printed 0, 0.0125, 0.025, 0.01), binding enhanced) | binding result ([2]; Fe3+ up to 0.025 mM (list printed 0, 0.0125, 0.025, 0.01), binding enhanced) | binding result ([2]; Mn2+ 0.125-0.5 mM, no effect on binding) | binding result ([2]; no added Fe/Mn, Fur 0-0.05 mM) |
| --- | --- | --- | --- | --- | --- | --- |
| AGAATAGGAGAAAAGCGACTTACTTTATAAGTAAGTCGCTTTTTATTAAATAAATTGTCATATAAAATTCAGAATCATATTAGAAAAAATCCTTATTTAGAATAATTATCTTTACGTATTTATTATTAGTTGTTATAATTGGAAACAAATGTTCTTGAAAAAGATTCTCATTTATAAAATTGAGGTGTTATATAGATGAAAAAGAAAAAAATAGGTTTACTCGTAATGGCGTATGGAACG (double strand) [PhemH2 promoter fragment, FAM] | binds | – | – | – | – | – |
| AGAATAGGAGAAAAGCGACTTACTTTATAAGTAAGTCGCTTTTTATTAAATAAATTGTCATATAAAATTCAGAATCATATTAGAAAAAATCCTTATTTAGAATAATTATCTTTACGTATTTATTATTAGTTGTTATAATTGGAAACAAATGTTCTTGAAAAAGATTCTCATTTATAAAATTGAGGTGTTATATAGATGAAAAAGAAAAAAATAGGTTTACTCGTAATGGCGTATGGAACG (double strand) [PhemH2 promoter fragment] | – | no binding | binds | binds | binds | binds |
